Source: the supplement of paper PMC7661543
The effect of the compound repeats well; differences between the knockouts mostly do not.

Test system: SKBR3
Assay: relative cell number vs DMSO control (72 h) (% of DMSO); higher = less growth inhibition (more cells)
Description: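 QMAP-Seq: a pool of 5 breast cancer cell lines (ZR-75-1, SKBR3, HCC-38, MDA-MB-231, BT-20), each carrying 12 doxycycline-inducible Cas9 sgRNA perturbations (11 knockouts plus non-targeting sgNT), was treated with compounds for 72 h at four 10-fold doses (10 nM-10 uM or 1 nM-1 uM range). Barcodes were amplified and sequenced, and cell number was interpolated from 293T spike-in standard curves. The result is expressed as % of the median of DMSO wells. Two biological replicates.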

O=P1(N(CCCl)CCCl)NCCCO1 (stereo not drawn) [Cyclophosphamide]
Details | relative cell number
sgRNA knockout: sgATF3, 10 nM | 89.8
sgRNA knockout: sgATF3, 100 nM | 109
sgRNA knockout: sgATF3, 1000 nM | 117
sgRNA knockout: sgATF3, 10000 nM | 82
sgRNA knockout: sgATF4, 10 nM | 119
sgRNA knockout: sgATF4, 100 nM | 94.6
sgRNA knockout: sgATF4, 1000 nM | 74.7
sgRNA knockout: sgATF4, 10000 nM | 78.3
sgRNA knockout: sgATF6, 10 nM | 109
sgRNA knockout: sgATF6, 100 nM | 89.3
sgRNA knockout: sgATF6, 1000 nM | 99.2
sgRNA knockout: sgATF6, 10000 nM | 76.5
sgRNA knockout: sgATG7, 10 nM | 94.3
sgRNA knockout: sgATG7, 100 nM | 85
sgRNA knockout: sgATG7, 1000 nM | 96
sgRNA knockout: sgATG7, 10000 nM | 92.5
sgRNA knockout: sgERN1, 10 nM | 84.6
sgRNA knockout: sgERN1, 100 nM | 94.1
sgRNA knockout: sgERN1, 1000 nM | 76.3
sgRNA knockout: sgERN1, 10000 nM | 89.4
sgRNA knockout: sgHSF1, 10 nM | 90.1
sgRNA knockout: sgHSF1, 100 nM | 97.01
sgRNA knockout: sgHSF1, 1000 nM | 78.7
sgRNA knockout: sgHSF1, 10000 nM | 107
sgRNA knockout: sgHSF2, 10 nM | 85.9
sgRNA knockout: sgHSF2, 100 nM | 75.9
sgRNA knockout: sgHSF2, 1000 nM | 94.6
sgRNA knockout: sgHSF2, 10000 nM | 86.68
sgRNA knockout: sgKEAP1, 10 nM | 108
sgRNA knockout: sgKEAP1, 100 nM | 84.4
sgRNA knockout: sgKEAP1, 1000 nM | 80
sgRNA knockout: sgKEAP1, 10000 nM | 84.9
sgRNA knockout: sgNFE2L2, 10 nM | 91.9
sgRNA knockout: sgNFE2L2, 100 nM | 102
sgRNA knockout: sgNFE2L2, 1000 nM | 94.6
sgRNA knockout: sgNFE2L2, 10000 nM | 94.6
sgRNA knockout: sgSLC35F2, 10 nM | 88.1
sgRNA knockout: sgSLC35F2, 100 nM | 99.8
sgRNA knockout: sgSLC35F2, 1000 nM | 95.6
sgRNA knockout: sgSLC35F2, 10000 nM | 91.11
sgRNA knockout: sgXBP1, 10 nM | 118
sgRNA knockout: sgXBP1, 100 nM | 98.4
sgRNA knockout: sgXBP1, 1000 nM | 92
sgRNA knockout: sgXBP1, 10000 nM | 88.5

CC(=O)Nc1cccc(-n2c(=O)n(C3CC3)c(=O)c3c(Nc4ccc(I)cc4F)n(C)c(=O)c(C)c32)c1 [Trametinib]
Details | relative cell number
sgRNA knockout: sgATF3, 10 nM | 104
sgRNA knockout: sgATF3, 100 nM | 89.2
sgRNA knockout: sgATF3, 1000 nM | 101
sgRNA knockout: sgATF3, 10000 nM | 87
sgRNA knockout: sgATF4, 10 nM | 95.5
sgRNA knockout: sgATF4, 100 nM | 91.6
sgRNA knockout: sgATF4, 1000 nM | 87.3
sgRNA knockout: sgATF4, 10000 nM | 86.1
sgRNA knockout: sgATF6, 10 nM | 81.3
sgRNA knockout: sgATF6, 100 nM | 73.6
sgRNA knockout: sgATF6, 1000 nM | 89.6
sgRNA knockout: sgATF6, 10000 nM | 91.6
sgRNA knockout: sgATG7, 10 nM | 94.8
sgRNA knockout: sgATG7, 100 nM | 79.7
sgRNA knockout: sgATG7, 1000 nM | 82.2
sgRNA knockout: sgATG7, 10000 nM | 83.1
sgRNA knockout: sgERN1, 10 nM | 90.9
sgRNA knockout: sgERN1, 100 nM | 67
sgRNA knockout: sgERN1, 1000 nM | 88.7
sgRNA knockout: sgERN1, 10000 nM | 83.3
sgRNA knockout: sgHSF1, 10 nM | 106
sgRNA knockout: sgHSF1, 100 nM | 78.1
sgRNA knockout: sgHSF1, 1000 nM | 72.9
sgRNA knockout: sgHSF1, 10000 nM | 64.1
sgRNA knockout: sgHSF2, 10 nM | 90.2
sgRNA knockout: sgHSF2, 100 nM | 75.3
sgRNA knockout: sgHSF2, 1000 nM | 74.9
sgRNA knockout: sgHSF2, 10000 nM | 97.7
sgRNA knockout: sgKEAP1, 10 nM | 106
sgRNA knockout: sgKEAP1, 100 nM | 87.1
sgRNA knockout: sgKEAP1, 1000 nM | 86.67
sgRNA knockout: sgKEAP1, 10000 nM | 78.1
sgRNA knockout: sgNFE2L2, 10 nM | 124
sgRNA knockout: sgNFE2L2, 100 nM | 89.3
sgRNA knockout: sgNFE2L2, 1000 nM | 91.2
sgRNA knockout: sgNFE2L2, 10000 nM | 68.5
sgRNA knockout: sgSLC35F2, 10 nM | 90
sgRNA knockout: sgSLC35F2, 100 nM | 63.4
sgRNA knockout: sgSLC35F2, 1000 nM | 91.6
sgRNA knockout: sgSLC35F2, 10000 nM | 77.5
sgRNA knockout: sgXBP1, 10 nM | 129
sgRNA knockout: sgXBP1, 100 nM | 90.9
sgRNA knockout: sgXBP1, 1000 nM | 96.6
sgRNA knockout: sgXBP1, 10000 nM | 65
